Experimental data: PubChem BioAssay AID1053208 (Peter MacCallum Cancer Centre, 2014)

Test: 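Synthetic lethal interactions between gene loss and doxorubicin in osteosarcoma cells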 (primary screen)
Cell system: mouse osteosarcoma cells, early-passage culture from an engineered mouse model of fibroblastic bone tumour
Reagent: siRNA pool against mouse genes, 40 nM
Duration: about 120 h (48 h before drug, then 72 h with drug)
Conditions: doxorubicin 100 nM for 72 h, roughly 30-40% inhibitory dose
Measurement: 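Luminescent ATP signal taken as viability with or without 100 nM doxorubicin for 72 h; mean of two wells set against non-targeting siRNA and turned into robust z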
Direction: viability z-score with doxorubicin: higher = more viable cells under doxorubicin; viability z-score without drug: higher = more viable cells with knock-down alone
Active means: 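a pool counts as active when its viability z-score with doxorubicin is -2 or below and its z-score without drug lies between -2 and 2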
In all, the deposit lists about 17,000 reagents; this is an unselected part. Over the whole deposit, 788 (4.7%) were called active. 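Calls rest on z-score classes alone; an extra cut-off of viability at most 70% of control was not applied to them.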 Not all columns of the deposit are shown. Reagent sequences are not shown.

target gene	PubChem SID	combined z-score class	viability z-score with doxorubicin	viability z-score without drug	Call
Pls3 (plastin 3 (T-isoform))	SID152328111	no change with or without drug	0	1.01	inactive
Foxp4 (forkhead box P4)	SID152272302	no change with or without drug	-0.79	-0.51	inactive
Tfr2 (transferrin receptor 2)	SID152311594	no change with or without drug	-0.67	0.17	inactive
Pex16 (peroxisomal biogenesis factor 16)	SID152301486	no change with or without drug	0.45	0.17	inactive
Sox11 (SRY (sex determining region Y)-box 11)	SID152340774	no change with or without drug	-1.12	-1.85	inactive
Arhgef11 (Rho guanine nucleotide exchange factor 11)	SID152277303	no change with or without drug	-1.35	0.84	inactive
Dcaf11 (DDB1 and CUL4 associated factor 11)	SID152286723	no change with or without drug	0.22	-0.17	inactive
Uhmk1 (U2AF homology motif (UHM) kinase 1)	SID152263546	low cell count with doxorubicin only	-2.81	0.34	active
Fdxr (ferredoxin reductase)	SID152304615	no change with or without drug	-0.9	0.51	inactive
Or8k40 (olfactory receptor family 8 subfamily K member 40)	SID152315564	high cell count with doxorubicin only	2.47	0	inactive
Or4d5 (olfactory receptor family 4 subfamily D member 5)	SID152329882	low cell count with doxorubicin only	-2.25	-1.18	active
Gabrd (gamma-aminobutyric acid (GABA) A receptor, subunit delta)	SID152318286	no change with or without drug	-1.8	0	inactive
Rell1 (RELT-like 1)	SID152339459	no change with or without drug	-0.22	1.69	inactive
Zc3h12d (zinc finger CCCH type containing 12D)	SID152305720	no change with or without drug	0.9	0.84	inactive
Sc5d (sterol-C5-desaturase)	SID152325877	no change with or without drug	-0.9	0.34	inactive
Enpp6 (ectonucleotide pyrophosphatase/phosphodiesterase 6)	SID152296737	no change with or without drug	0	0.34	inactive
Atxn2 (ataxin 2)	SID152272278	no change with or without drug	0.79	1.18	inactive
Blcap (bladder cancer associated protein)	SID152320291	no change with or without drug	0.45	0.17	inactive
Tmem203 (transmembrane protein 203)	SID152263890	no change with or without drug	-1.01	-0.17	inactive
Padi2 (peptidyl arginine deiminase, type II)	SID152296408	no change with or without drug	-0.67	-0.84	inactive
Aldh9a1 (aldehyde dehydrogenase 9, subfamily A1)	SID152322575	no change with or without drug	1.01	0.51	inactive
Gk5 (glycerol kinase 5)	SID152323299	no change with or without drug	0	-0.17	inactive
Emilin3 (elastin microfibril interfacer 3)	SID152261420	no change with or without drug	0	1.85	inactive
Csf3 (colony stimulating factor 3 (granulocyte))	SID152337114	no change with or without drug	0.79	0.67	inactive
Tgif2lx1 (TGFB-induced factor homeobox 2-like, X-linked 1)	SID152327418	no change with or without drug	-1.69	-1.52	inactive
Tmt1b (thiol methyltransferase 1B)	SID152297870	no change with or without drug	0.11	0.17	inactive

8 successive records from above, quoted:
target gene	PubChem SID	combined z-score class	viability z-score with doxorubicin	viability z-score without drug	Call
Foxp4 (forkhead box P4)	SID152272302	no change with or without drug	-0.79	-0.51	inactive
Tfr2 (transferrin receptor 2)	SID152311594	no change with or without drug	-0.67	0.17	inactive
Pex16 (peroxisomal biogenesis factor 16)	SID152301486	no change with or without drug	0.45	0.17	inactive
Sox11 (SRY (sex determining region Y)-box 11)	SID152340774	no change with or without drug	-1.12	-1.85	inactive
Arhgef11 (Rho guanine nucleotide exchange factor 11)	SID152277303	no change with or without drug	-1.35	0.84	inactive
Dcaf11 (DDB1 and CUL4 associated factor 11)	SID152286723	no change with or without drug	0.22	-0.17	inactive
Uhmk1 (U2AF homology motif (UHM) kinase 1)	SID152263546	low cell count with doxorubicin only	-2.81	0.34	active
Fdxr (ferredoxin reductase)	SID152304615	no change with or without drug	-0.9	0.51	inactive

The list goes on.
target gene	PubChem SID	combined z-score class	viability z-score with doxorubicin	viability z-score without drug	Call
Map10 (microtubule-associated protein 10)	SID152281596	no change with or without drug	0.45	-0.84	inactive
Krt19 (keratin 19)	SID152297560	high cell count without drug only	-0.22	2.7	inactive
Pik3ap1 (phosphoinositide-3-kinase adaptor protein 1)	SID152325661	no change with or without drug	-0.22	0.34	inactive
Or1l8 (olfactory receptor family 1 subfamily L member 8)	SID152309939	no change with or without drug	-1.46	0.51	inactive
Dusp9 (dual specificity phosphatase 9)	SID152298820	no change with or without drug	-1.01	-0.51	inactive
Dnase1l3 (deoxyribonuclease 1-like 3)	SID152270115	high cell count without drug only	0.79	2.19	inactive
Or52i2 (olfactory receptor family 52 subfamily J member 2)	SID152333205	no change with or without drug	-0.22	0	inactive
Lrrc4 (leucine rich repeat containing 4)	SID152315598	no change with or without drug	-0.45	-1.18	inactive
Ubc (ubiquitin C)	SID152304629	no change with or without drug	-1.12	-0.51	inactive
Or51a24 (olfactory receptor family 51 subfamily A member 24)	SID152327518	no change with or without drug	-1.91	-0.34	inactive
Vmn1r23 (vomeronasal 1 receptor 23)	SID152339107	no change with or without drug	1.8	0.17	inactive
Guca2b (guanylate cyclase activator 2b)	SID152264793	no change with or without drug	0.67	-0.17	inactive
Ceacam13 (CEA cell adhesion molecule 13)	SID152284348	no change with or without drug	-1.46	-1.18	inactive
Fam135b (family with sequence similarity 135, member B)	SID152285667	no change with or without drug	0.34	0.34	inactive
Fam135b (family with sequence similarity 135, member B)	SID152289563	no change with or without drug	-1.01	-1.18	inactive
Or6d12 (olfactory receptor family 6 subfamily D member 12)	SID152323117	no change with or without drug	0.22	0.34	inactive
Apba1 (amyloid beta precursor protein binding family A member 1)	SID152294976	no change with or without drug	-0.67	0.51	inactive
Pa2g4 (proliferation-associated 2G4)	SID152280104	no change with or without drug	0.22	-0.51	inactive
Ptpn6 (protein tyrosine phosphatase, non-receptor type 6)	SID152338528	no change with or without drug	-0.9	0.51	inactive
LTO1 (ABCE maturation factor)	SID152293406	no change with or without drug	-0.34	1.18	inactive
Csf2rb	SID152292708	no change with or without drug	1.35	1.52	inactive
Pkp1 (plakophilin 1)	SID152274701	no change with or without drug	0	-0.51	inactive
Rorb (RAR-related orphan receptor beta)	SID152332267	no change with or without drug	-1.12	0	inactive
Tmem81 (transmembrane protein 81)	SID152286646	high cell count without drug only	-1.12	3.54	inactive
